In the supplement of paper PMC10849652:
The other results are listed elsewhere or left out.

Protein sequences, listed by entry. Tags and fused reporters are not part of them. Lines headed by an entry give the natural chain unless they say otherwise; changes in a name come on top.
UniProt P51991: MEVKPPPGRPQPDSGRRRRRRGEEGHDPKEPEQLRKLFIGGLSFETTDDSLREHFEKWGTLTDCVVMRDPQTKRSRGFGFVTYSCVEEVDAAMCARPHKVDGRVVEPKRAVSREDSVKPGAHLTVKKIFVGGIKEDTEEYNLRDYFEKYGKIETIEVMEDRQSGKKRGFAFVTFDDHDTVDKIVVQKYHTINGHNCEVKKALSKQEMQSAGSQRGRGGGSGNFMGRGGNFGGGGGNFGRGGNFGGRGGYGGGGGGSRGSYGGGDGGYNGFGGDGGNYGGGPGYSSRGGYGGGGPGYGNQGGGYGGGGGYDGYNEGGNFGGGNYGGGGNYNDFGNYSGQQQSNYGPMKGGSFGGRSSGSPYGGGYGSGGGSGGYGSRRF
UniProt Q9NSE4: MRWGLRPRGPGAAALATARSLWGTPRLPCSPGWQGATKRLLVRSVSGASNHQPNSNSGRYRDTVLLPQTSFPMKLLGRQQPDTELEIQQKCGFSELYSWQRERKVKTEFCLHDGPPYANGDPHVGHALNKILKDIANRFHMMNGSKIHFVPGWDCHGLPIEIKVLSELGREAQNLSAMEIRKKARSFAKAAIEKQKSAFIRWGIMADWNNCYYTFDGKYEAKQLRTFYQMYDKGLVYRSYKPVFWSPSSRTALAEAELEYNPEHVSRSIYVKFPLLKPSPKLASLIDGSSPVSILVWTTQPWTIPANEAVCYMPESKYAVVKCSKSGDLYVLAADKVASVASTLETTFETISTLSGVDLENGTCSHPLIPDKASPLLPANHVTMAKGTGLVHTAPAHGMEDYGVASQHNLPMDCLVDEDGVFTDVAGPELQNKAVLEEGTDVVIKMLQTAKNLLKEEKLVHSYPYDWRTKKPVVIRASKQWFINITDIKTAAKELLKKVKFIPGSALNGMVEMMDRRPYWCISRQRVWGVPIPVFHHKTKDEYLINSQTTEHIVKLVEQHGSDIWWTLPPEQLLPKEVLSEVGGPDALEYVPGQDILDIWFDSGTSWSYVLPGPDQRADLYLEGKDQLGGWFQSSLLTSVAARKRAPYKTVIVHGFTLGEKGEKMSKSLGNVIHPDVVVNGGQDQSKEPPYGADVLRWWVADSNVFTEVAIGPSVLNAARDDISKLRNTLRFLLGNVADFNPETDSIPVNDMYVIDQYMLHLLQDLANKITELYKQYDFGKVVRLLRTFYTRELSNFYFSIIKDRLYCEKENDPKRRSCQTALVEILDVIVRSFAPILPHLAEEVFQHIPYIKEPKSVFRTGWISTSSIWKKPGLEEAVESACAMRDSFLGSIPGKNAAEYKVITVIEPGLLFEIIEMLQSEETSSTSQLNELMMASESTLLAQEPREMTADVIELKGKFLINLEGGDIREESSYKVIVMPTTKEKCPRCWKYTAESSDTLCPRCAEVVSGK
UniProt O14964, whole entry, looked up: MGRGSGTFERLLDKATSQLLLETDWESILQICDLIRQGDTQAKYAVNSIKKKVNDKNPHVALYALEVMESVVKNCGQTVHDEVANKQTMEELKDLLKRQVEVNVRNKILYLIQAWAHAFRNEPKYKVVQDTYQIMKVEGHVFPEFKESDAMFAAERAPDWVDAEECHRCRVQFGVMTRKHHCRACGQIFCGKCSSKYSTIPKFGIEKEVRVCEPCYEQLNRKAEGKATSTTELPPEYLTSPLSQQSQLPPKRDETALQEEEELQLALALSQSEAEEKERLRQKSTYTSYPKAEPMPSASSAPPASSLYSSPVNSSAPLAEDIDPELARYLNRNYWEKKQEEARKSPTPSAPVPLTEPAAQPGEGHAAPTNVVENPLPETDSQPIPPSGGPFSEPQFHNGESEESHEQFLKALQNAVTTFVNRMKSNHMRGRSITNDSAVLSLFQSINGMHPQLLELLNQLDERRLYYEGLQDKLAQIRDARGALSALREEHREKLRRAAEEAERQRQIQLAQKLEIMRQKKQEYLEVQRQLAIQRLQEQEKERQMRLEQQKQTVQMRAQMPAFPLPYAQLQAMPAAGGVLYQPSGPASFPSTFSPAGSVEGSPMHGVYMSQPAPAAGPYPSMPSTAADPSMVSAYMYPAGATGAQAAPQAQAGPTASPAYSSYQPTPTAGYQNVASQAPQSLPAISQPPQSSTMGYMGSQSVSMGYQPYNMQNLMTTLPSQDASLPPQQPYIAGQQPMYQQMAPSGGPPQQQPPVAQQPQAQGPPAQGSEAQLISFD
UniProt O60921: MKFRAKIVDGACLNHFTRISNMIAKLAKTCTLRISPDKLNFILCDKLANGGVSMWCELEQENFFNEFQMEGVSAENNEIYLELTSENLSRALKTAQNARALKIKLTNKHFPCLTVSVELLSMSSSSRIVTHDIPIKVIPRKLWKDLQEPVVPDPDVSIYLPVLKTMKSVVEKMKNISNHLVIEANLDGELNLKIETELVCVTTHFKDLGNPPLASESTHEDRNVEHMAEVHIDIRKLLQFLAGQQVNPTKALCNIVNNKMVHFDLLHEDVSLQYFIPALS
UniProt P13598: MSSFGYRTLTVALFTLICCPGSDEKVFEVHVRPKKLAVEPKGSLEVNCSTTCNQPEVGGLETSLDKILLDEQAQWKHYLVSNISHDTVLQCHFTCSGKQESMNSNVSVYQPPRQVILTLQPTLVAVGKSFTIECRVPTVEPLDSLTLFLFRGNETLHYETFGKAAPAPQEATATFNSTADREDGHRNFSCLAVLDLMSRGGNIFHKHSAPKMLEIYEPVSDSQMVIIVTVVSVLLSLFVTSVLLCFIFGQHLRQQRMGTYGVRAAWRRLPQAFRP
UniProt O14979: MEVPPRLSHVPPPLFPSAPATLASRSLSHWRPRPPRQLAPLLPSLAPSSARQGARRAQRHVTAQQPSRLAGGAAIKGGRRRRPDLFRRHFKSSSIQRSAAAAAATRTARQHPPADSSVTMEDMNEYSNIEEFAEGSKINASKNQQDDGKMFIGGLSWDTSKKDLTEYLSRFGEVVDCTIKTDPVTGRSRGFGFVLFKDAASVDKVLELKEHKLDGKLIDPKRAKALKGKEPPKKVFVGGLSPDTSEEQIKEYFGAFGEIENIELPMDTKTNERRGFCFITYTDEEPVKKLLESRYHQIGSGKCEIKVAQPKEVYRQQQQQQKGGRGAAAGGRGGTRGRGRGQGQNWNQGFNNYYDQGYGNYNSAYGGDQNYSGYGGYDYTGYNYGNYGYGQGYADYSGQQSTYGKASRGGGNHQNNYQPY
UniProt Q5T440: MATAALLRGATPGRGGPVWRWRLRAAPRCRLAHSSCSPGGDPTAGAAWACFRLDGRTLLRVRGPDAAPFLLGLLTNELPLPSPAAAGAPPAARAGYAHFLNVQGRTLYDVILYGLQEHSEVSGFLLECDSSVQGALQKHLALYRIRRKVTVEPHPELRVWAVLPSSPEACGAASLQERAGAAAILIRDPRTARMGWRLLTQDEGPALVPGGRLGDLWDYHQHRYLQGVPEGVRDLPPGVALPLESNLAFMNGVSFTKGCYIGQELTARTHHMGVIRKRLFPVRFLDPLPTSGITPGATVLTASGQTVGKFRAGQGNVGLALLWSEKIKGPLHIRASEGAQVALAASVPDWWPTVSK
UniProt P26583: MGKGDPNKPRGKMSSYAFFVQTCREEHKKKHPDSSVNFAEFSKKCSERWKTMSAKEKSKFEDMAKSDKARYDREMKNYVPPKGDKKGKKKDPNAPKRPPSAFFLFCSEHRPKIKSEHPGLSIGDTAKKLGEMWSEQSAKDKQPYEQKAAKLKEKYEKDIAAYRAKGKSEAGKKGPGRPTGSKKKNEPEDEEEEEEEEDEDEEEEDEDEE
UniProt P50747: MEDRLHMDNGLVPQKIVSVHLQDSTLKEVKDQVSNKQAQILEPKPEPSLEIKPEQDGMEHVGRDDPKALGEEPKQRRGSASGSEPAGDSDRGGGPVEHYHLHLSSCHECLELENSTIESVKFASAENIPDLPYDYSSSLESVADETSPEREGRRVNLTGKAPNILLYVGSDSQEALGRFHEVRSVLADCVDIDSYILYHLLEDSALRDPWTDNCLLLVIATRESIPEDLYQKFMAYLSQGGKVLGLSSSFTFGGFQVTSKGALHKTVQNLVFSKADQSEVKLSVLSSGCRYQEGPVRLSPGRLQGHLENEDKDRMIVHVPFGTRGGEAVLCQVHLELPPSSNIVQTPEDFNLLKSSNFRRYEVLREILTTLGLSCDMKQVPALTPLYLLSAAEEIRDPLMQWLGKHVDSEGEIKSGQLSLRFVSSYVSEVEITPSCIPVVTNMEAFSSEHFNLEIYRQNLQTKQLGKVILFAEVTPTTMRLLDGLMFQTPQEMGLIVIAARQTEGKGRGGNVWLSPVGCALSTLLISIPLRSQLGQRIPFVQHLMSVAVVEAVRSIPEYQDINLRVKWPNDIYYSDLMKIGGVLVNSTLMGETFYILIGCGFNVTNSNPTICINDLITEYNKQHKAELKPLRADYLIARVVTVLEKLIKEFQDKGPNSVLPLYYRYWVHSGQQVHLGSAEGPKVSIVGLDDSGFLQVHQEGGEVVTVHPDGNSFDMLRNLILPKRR
UniProt Q14103: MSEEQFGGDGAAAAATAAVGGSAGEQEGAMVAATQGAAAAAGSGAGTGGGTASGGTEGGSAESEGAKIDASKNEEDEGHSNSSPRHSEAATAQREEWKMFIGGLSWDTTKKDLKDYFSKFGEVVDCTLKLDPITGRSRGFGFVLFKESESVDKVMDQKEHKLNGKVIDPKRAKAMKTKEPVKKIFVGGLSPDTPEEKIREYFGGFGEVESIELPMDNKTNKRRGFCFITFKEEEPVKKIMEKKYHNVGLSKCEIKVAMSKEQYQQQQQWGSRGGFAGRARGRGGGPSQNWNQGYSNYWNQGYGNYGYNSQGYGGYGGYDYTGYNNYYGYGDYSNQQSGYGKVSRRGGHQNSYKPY
UniProt Q15651: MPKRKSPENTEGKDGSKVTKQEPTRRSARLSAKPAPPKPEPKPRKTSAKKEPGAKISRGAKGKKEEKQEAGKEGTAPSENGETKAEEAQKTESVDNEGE
UniProt P31942: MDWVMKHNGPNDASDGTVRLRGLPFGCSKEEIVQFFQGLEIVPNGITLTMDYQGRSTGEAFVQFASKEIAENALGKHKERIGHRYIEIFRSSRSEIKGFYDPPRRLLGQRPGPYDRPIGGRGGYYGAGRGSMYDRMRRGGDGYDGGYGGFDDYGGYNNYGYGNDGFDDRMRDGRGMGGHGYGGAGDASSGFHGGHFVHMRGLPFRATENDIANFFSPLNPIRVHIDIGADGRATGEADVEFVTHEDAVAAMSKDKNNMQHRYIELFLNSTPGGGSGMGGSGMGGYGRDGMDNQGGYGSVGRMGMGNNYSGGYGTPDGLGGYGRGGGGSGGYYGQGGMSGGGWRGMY
UniProt Q9Y547: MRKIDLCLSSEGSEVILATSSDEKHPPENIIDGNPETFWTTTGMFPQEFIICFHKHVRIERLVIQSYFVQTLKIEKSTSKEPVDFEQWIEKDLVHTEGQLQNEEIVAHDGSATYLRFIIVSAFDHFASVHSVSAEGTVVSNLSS
UniProt Q58FG1, whole entry, looked up: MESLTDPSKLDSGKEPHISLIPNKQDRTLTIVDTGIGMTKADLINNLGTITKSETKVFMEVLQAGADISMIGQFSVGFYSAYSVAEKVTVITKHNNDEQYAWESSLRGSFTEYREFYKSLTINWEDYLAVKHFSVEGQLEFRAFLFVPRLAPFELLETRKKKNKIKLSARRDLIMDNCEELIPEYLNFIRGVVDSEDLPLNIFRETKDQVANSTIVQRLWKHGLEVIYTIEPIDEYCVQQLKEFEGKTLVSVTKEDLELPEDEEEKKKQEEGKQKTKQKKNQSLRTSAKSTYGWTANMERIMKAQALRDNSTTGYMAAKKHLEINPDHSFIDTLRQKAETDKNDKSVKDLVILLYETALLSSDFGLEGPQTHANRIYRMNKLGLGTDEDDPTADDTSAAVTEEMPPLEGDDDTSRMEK
UniProt O75330: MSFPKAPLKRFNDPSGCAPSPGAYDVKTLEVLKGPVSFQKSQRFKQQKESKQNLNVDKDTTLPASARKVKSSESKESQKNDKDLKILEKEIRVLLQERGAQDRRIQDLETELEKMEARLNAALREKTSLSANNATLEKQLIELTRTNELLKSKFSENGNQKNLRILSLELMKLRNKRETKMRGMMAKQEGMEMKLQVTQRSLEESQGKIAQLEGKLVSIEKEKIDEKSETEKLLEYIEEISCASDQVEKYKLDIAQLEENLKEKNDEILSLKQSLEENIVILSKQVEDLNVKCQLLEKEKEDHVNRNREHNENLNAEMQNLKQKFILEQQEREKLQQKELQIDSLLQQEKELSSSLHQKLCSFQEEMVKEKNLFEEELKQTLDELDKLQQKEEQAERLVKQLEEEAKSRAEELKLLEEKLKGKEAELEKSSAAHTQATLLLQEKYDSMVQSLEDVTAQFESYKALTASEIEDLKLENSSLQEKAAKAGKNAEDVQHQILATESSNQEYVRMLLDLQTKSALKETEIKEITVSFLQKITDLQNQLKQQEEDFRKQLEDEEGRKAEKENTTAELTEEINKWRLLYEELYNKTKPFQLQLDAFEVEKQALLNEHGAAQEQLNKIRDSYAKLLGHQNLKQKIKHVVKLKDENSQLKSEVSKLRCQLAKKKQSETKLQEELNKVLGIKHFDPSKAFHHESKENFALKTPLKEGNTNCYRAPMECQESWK

Columns and labels:
Test in all cases: log2 fold change, soluble protein after heating vs DMSO (PISA); higher = thermal stabilisation; K562 cells, 10 uM, 30 min; active = over 0.2 and 3.5 SD of the protein, either way, in both replicates (recomputed)
[1] = compound: NC(=O)Nc1cc(-c2cccc(F)c2)sc1C(=O)N[C@H]1CCCNC1
Summary of the method: (§1)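 K562 cells (2×10^6 cells/mL) were treated with 10 μM compound for 30 min, and aliquots were heated for 3 min over 48°C-58°C. Pooled aliquots were extracted in PBS with 0.5% NP-40 at 4°C, and the supernatant after 21,000xg for 90 min was measured by TMTpro 16plex LC-MS/MS with channel sums equalised. Reported thermal stability, relative to control samples and from duplicates, is a log2 fold change.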

[2] = compound: NC(=O)c1cnc(N[C@@H]2CCCC[C@@H]2N)nc1Nc1cccc(-n2nccn2)c1
Summary of the method: as §1

[3] = compound: NC1(c2ccc(-c3nc4ccn5c(=O)[nH]nc5c4cc3-c3ccccc3)cc2)CCC1
Summary of the method: as §1

[4] = compound: NCC(=O)Nc1ccc(-n2nc(C(F)(F)F)cc2-c2ccc3c(ccc4ccccc43)c2)cc1
Summary of the method: as §1

[5] = compound: Nc1ccccc1NC(=O)c1ccc(CNC(=O)OCc2cccnc2)cc1 [entinostat]
Summary of the method: as §1

[6] = compound: O=C(CCCCCCC(=O)Nc1ccccc1)NO [vorinostat]
Summary of the method: as §1

[7] = compound: O=C(CCCCCCNC(=O)c1cnc(N(c2ccccc2)c2ccccc2Cl)nc1)NO [citarinostat]
Summary of the method: as §1

[8] = compound: O=C(O)c1ccc2c(c1)nc(Nc1cccc(Cl)c1)c1ccncc12 [silmitasertib]
Summary of the method: as §1

[9] = compound: O=C1NC(=O)C(c2cnc3ccccn23)=C1c1cn2c3c(cc(F)cc13)CN(C(=O)N1CCCCC1)CC2
Summary of the method: as §1

[10] = compound: c1cc(OCCN2CCCCC2)cc(-c2n[nH]c3ccc(-c4nnc[nH]4)cc23)c1
Summary of the method: as §1

[11] = compound: c1cn2cc(-c3ccc4cn[nH]c4c3)nc(Nc3ccc(N4CCOCC4)cc3)c2n1 [entospletinib]
Summary of the method: as §1

Measured: log2 fold change

HNRNPH2 (UniProt P55795)
inactive: [1] -0.073 | [2] -0.03 | [3] -0.124 | [4] -0.077 | [5] 0.016 | [6] 0.114 | [7] 0.06 | [8] 0.031 | [9] -0.007 | [10] -0.086

HSPA8 (UniProt E9PN89)
inactive: [1] -0.317 | [2] -0.283 | [3] -0.172 | [4] -0.372 | [5] -0.135 | [6] -0.057 | [7] -0.304 | [8] 0.365 | [9] -0.102 | [10] -0.394

HYOU1 (UniProt Q9Y4L1)
inactive: [1] 0.068 | [2] -0.011 | [3] -0.032 | [4] 0.049 | [5] 0.028 | [6] 0.002 | [7] 0.007 | [8] -0.006 | [9] 0 | [10] -0.073 | [11] -0.02

HNRNPA3 (UniProt P51991)
inactive: [1] -0.038 | [2] 0.063 | [3] 0.402 | [4] 0.109 | [5] -0.056 | [6] -0.148 | [7] -0.175 | [8] 0.275 | [9] 0.266 | [10] -0.292 | [11] 0.004

IARS2 (UniProt Q9NSE4)
inactive: [1] -0.021 | [2] 0.014 | [3] -0.009 | [4] 0.049 | [5] -0.038 | [6] -0.003 | [7] 0.027 | [8] 0.008 | [9] -0.015 | [10] 0.013 | [11] -0.005

HGS (UniProt O14964)
inactive: [1] -0.033 | [2] -0.074 | [3] -0.12 | [4] -0.046 | [5] 0.016 | [6] 0.016 | [7] 0.062 | [8] 0.007 | [9] -0.006 | [10] -0.015 | [11] -0.002

HSP90AA1 isoform 2 (UniProt P07900)
inactive: [1] -0.027 | [2] -0.003 | [3] -0.088 | [4] -0.028 | [5] 0.014 | [6] 0.025 | [7] 0.006 | [8] -0.015 | [9] -0.026 | [10] 0.01 | [11] 0.025

HSD17B4 (UniProt P51659)
inactive: [1] -0.033 | [2] -0.048 | [3] -0.009 | [4] -0.002 | [5] -0.021 | [6] -0.07 | [7] 0.006 | [8] 0.021 | [9] -0.066 | [10] -0.01 | [11] 0.024

HUWE1 (UniProt Q7Z6Z7)
inactive: [1] 0.021 | [2] -0.061 | [3] -0.118 | [4] -0.038 | [5] 0.008 | [6] 0.03 | [7] 0.026 | [8] 0.008 | [9] -0.01 | [10] -0.024 | [11] 0.01

HUS1 (UniProt O60921)
inactive: [1] -0.021 | [2] 0.022 | [3] -0.092 | [4] 0.031 | [5] -0.014 | [6] 0.026 | [7] 0.004 | [8] -0.014 | [9] -0.016 | [10] -0.041 | [11] -0.006

ICAM2 (UniProt P13598)
inactive: [1] -0.079 | [2] 0.056 | [3] 0.107 | [4] 0.087 | [5] -0.049 | [6] -0.012 | [7] 0.054 | [8] -0.054 | [9] -0.066 | [10] -0.032 | [11] -0.008

HIC2 (UniProt Q96JB3)
inactive: [1] -0.071 | [2] -0.06 | [3] 0.016 | [4] 0.101 | [5] -0.027 | [6] -0.027 | [7] -0.019 | [8] 0.098 | [9] 0.121 | [10] -0.233

HNRNPDL (UniProt O14979)
inactive: [1] -0.026 | [2] 0.055 | [3] 0.274 | [4] 0.054 | [5] -0.098 | [6] -0.031 | [7] -0.093 | [8] 0.183 | [9] 0.152 | [10] -0.091 | [11] 0.102

HTATSF1 (UniProt O43719)
inactive: [1] 0.024 | [2] -0.156 | [3] -0.213 | [4] -0.081 | [5] 0.104 | [6] 0.087 | [7] 0.106 | [8] 0.09 | [9] -0.083 | [10] 0.009 | [11] 0

HSPA9 (UniProt P38646)
inactive: [1] 0.032 | [2] 0.015 | [3] 0.035 | [4] 0.013 | [5] -0.007 | [6] -0.013 | [7] -0.026 | [8] -0.015 | [9] -0.014 | [10] 0.01 | [11] -0.02

IBA57 (UniProt Q5T440)
inactive: [1] -0.019 | [2] 0.012 | [3] -0.11 | [4] -0.003 | [5] 0.01 | [6] -0.024 | [7] -0.018 | [8] -0.025 | [9] -0.004 | [10] 0.041 | [11] 0.005

HMGB2 (UniProt P26583)
inactive: [1] 0.082 | [2] 0.04 | [3] 0.103 | [4] 0.081 | [5] 0.011 | [6] -0.035 | [7] 0 | [8] -0.11 | [9] -0.011 | [10] 0.126 | [11] 0.033

HLCS (UniProt P50747)
inactive: [1] -0.007 | [2] -0.058 | [3] -0.111 | [4] -0.061 | [5] 0.02 | [6] -0.057 | [7] -0.001 | [8] 0.048 | [9] -0.01 | [10] 0.027 | [11] 0.042

HNRNPD isoform 4 (UniProt Q14103)
inactive: [1] -0.005 | [2] 0.011 | [3] 0.205 | [4] 0.172 | [5] -0.041 | [6] -0.087 | [7] -0.215 | [8] 0.112 | [9] 0.102 | [10] -0.049 | [11] 0.181

HMGN3 (UniProt Q15651)
inactive: [1] -0.147 | [2] -0.125 | [3] 0.047 | [4] -0.065 | [5] -0.027 | [6] 0.017 | [7] -0.063 | [8] -0.04 | [9] -0.042 | [10] -0.113 | [11] 0.012

HNRNPH3 (UniProt P31942)
inactive: [1] 0.076 | [2] 0.207 | [3] 0.36 | [4] 0.029 | [5] -0.03 | [6] 0.039 | [7] 0.01 | [8] 0.137 | [9] 0.251 | [10] -0.212 | [11] -0.02

HSPB11 (UniProt Q9Y547)
inactive: [1] -0.014 | [2] -0.065 | [3] 0.075 | [4] -0.078 | [5] 0.012 | [6] -0.01 | [7] 0.057 | [8] -0.018 | [9] -0.024 | [10] -0.04 | [11] -0.002

HM13 isoform 2 (UniProt Q8TCT9)
inactive: [1] 0.034 | [2] -0.032 | [3] -0.061 | [4] -0.035 | [5] 0.013 | [6] -0.044 | [7] -0.002 | [8] 0.026 | [9] -0.051 | [10] -0.073 | [11] -0.024

HSP90AA4P (UniProt Q58FG1)
inactive: [1] -0.318 | [2] -0.355 | [3] -0.201 | [4] -0.233 | [5] -0.079 | [6] -0.065 | [7] -0.018 | [8] 0.13 | [9] -0.112 | [10] -0.151 | [11] 0.143

HYOU1, A0A494C039
inactive: [1] -0.09 | [2] 0.137 | [3] 0.037 | [4] 0.052 | [5] 0.032 | [6] 0.078 | [7] 0.042 | [8] 0.101 | [9] 0.026 | [10] -0.201 | [11] 0.016

HMMR isoform 3 (UniProt O75330)
inactive: [1] 0.009 | [2] -0.101 | [3] -0.058 | [4] -0.049 | [5] 0.063 | [6] 0.11 | [7] -0.002 | [8] 0.085 | [9] 0.101 | [10] -0.05 | [11] 0.053

2 successive records already listed, for reference:
HYOU1, A0A494C039
inactive: [1] -0.09 | [2] 0.137 | [3] 0.037 | [4] 0.052 | [5] 0.032 | [6] 0.078 | [7] 0.042 | [8] 0.101 | [9] 0.026 | [10] -0.201 | [11] 0.016

HMMR isoform 3 (UniProt O75330)
inactive: [1] 0.009 | [2] -0.101 | [3] -0.058 | [4] -0.049 | [5] 0.063 | [6] 0.11 | [7] -0.002 | [8] 0.085 | [9] 0.101 | [10] -0.05 | [11] 0.053

Additional results follow.

HNRNPD (UniProt Q14103)
inactive: [1] -0.001 | [2] 0.173 | [3] 0.222 | [4] 0.08 | [5] -0.075 | [6] -0.02 | [7] -0.115 | [8] 0.096 | [9] 0.107 | [10] -0.08 | [11] 0.069
